Patent US9999690B2, “Labeled compounds and methods of imaging, diagnosing cartilage disorders and diseases, and monitoring cartilage health using labeled and unlabeled compounds” (Perosphere Inc., priority 2013, dated 2018)
Further values from the same series stand in other lists.

Experiment: Tissue distribution of radioactivity by Quantitative Whole-Body Autoradiography (QWBA), Group 4
Type: in vivo
Settings: rat, single IV 2 mg/kg
Description: A study was conducted to determine the pharmacokinetics, rates and routes of excretion with mass baseline and tissue distribution of radioactivity, after a single intravenous dose administration of formula XIII (also referred to as [^14C]DAP) was administered to the rats by tail vein intravenous injection at a
The study was conducted on 19 male rats divided into 4 groups. The first group of 6 rats was used for blood collection (Group 1); the second group of 4 rats was used for urine, feces, cage rinses and wipes and carcasses collection (Group 2); the third group of 4 rats was used for expired air collection (Group 3); the fourth group of 5 rats was used for terminal blood/serum and tissue distribution by Quantitative Whole-Body Autoradiography (QWBA) (Group 4).
For Group 4, formula XIII (QWBA was run at 1, 8, 12, 24 and 72 hours post dose. After terminal blood collection, each euthanized animal was frozen in a hexane/dry ice bath and embedded in a 2% carboxymethylcellulose matrix according to MPI Research SOP ADME-112. The embedded carcasses were sectioned according to MPI Research SOP ADME-113 on a Leica CM3600 Cyromacrotome set to maintain −10 to −30° C. At least four fortified quality control standards of known radioactive concentration were placed into the frozen block prior to sectioning and used for section thickness quality control. The quality control standards were sectioned under the same conditions as the specimen. The intrasection and intersection variation of collected sections were determined by analyzing the quality control standards. Section variation must be less than 20% for quantitative analysis. Sections that were approximately 40μm thick were taken in the sagittal plane. Appropriate sections selected at various levels of interest in the block were collected to encompass the following tissues, organs, and biological fluids, where possible: adrenal gland, bladder (urinary) and contents (urine), blood (cardiac), bone, bone marrow, brain, eye, fat (brown), fat (white), heart, kidney, large intestine/cecum and contents, liver, lung, muscle, pancreas, prostate, salivary glands, skin, small intestine and contents, spleen, stomach and contents, testes, thymus, thyroid, mesenteric lymph nodes, and epididymis. A set of sections were mounted, exposed to phosphor imaging screens and scanned using the Storm 860 image acquisition system according to MPI Research SOP ADME-112. Quantification, relative to the calibration standards, were performed by image densitometry using MCID™ image analysis software according to MPI Research SOP ADME-114. A standard curve was constructed from the integrated response (MDC/mm2) and the nominal concentrations of the [^14C]Glucose calibration standards. Relative error should be less than 0.5 for each point on the curve. The concentrations of radioactivity were expressed as μCi/g and were converted to μg or ng-equivalents of DAP per gram of sample (μg- or ng-eq/g) using the specific activity of administered [^14C]DAP dose formulation. A lower limit of quantification (LLOQ) was applied to the data. The LLOQ was determined using the radioactive concentration of the lowest calibration standard used to generate a calibration curve divided by the specific activity of the dose formulation (μCi/ug). Artifacts, such as those produced by dislodged contents of the alimentary canal, were excluded from analysis during image analysis.

[2H]C1([2H])N(CCCNC(=O)[C@@H](N)CCCNC(=N)N)C([2H])([2H])C([2H])([2H])N(CCCNC(=O)[C@@H](N)CCCNC(=N)N)C1([2H])[2H] [formula XIII]
Concentration of Radioactivity in Esophagus (12 Hours): 1288 ng Equivalents [^14C]DAP/g
Concentration of Radioactivity in Exorbital gland (12 Hours): 1733 ng Equivalents [^14C]DAP/g
Concentration of Radioactivity in Eye (lens) (12 Hours): 176 ng Equivalents [^14C]DAP/g
Concentration of Radioactivity in Fat (brown) (12 Hours): 1689 ng Equivalents [^14C]DAP/g
Concentration of Radioactivity in Fat (white) (12 Hours): 494 ng Equivalents [^14C]DAP/g
Concentration of Radioactivity in Harderian gland (12 Hours): 1004 ng Equivalents [^14C]DAP/g
Concentration of Radioactivity in Intraorbital gland (12 Hours): 1632 ng Equivalents [^14C]DAP/g
Concentration of Radioactivity in Large intestine (12 Hours): 3594 ng Equivalents [^14C]DAP/g
Concentration of Radioactivity in Lung (12 Hours): 1534 ng Equivalents [^14C]DAP/g
Concentration of Radioactivity in Lymph nodes (12 Hours): 2743 ng Equivalents [^14C]DAP/g
Concentration of Radioactivity in Muscle (12 Hours): 341 ng Equivalents [^14C]DAP/g
Concentration of Radioactivity in Myocardium (12 Hours): 912 ng Equivalents [^14C]DAP/g
Concentration of Radioactivity in Nasal turbinates (12 Hours): 3378 ng Equivalents [^14C]DAP/g
Concentration of Radioactivity in Olfactory lobe (12 Hours): 435 ng Equivalents [^14C]DAP/g
Concentration of Radioactivity in Pancreas (12 Hours): 3058 ng Equivalents [^14C]DAP/g
Concentration of Radioactivity in Pituitary gland (12 Hours): 2155 ng Equivalents [^14C]DAP/g
Concentration of Radioactivity in Preputial gland (12 Hours): 1611 ng Equivalents [^14C]DAP/g
Concentration of Radioactivity in Prostate gland (12 Hours): 9639 ng Equivalents [^14C]DAP/g
Concentration of Radioactivity in Salivary gland (12 Hours): 2710 ng Equivalents [^14C]DAP/g
Concentration of Radioactivity in Seminal vesicles (12 Hours): 283 ng Equivalents [^14C]DAP/g
Concentration of Radioactivity in Skin (12 Hours): 1982 ng Equivalents [^14C]DAP/g
Concentration of Radioactivity in Small intestinal contents (12 Hours): 1305 ng Equivalents [^14C]DAP/g
Concentration of Radioactivity in Spleen (12 Hours): 1793 ng Equivalents [^14C]DAP/g
Concentration of Radioactivity in Stomach (12 Hours): 1015 ng Equivalents [^14C]DAP/g
Concentration of Radioactivity in Testes (12 Hours): 415 ng Equivalents [^14C]DAP/g
Concentration of Radioactivity in Thyroid gland (12 Hours): 2667 ng Equivalents [^14C]DAP/g
Concentration of Radioactivity in Vitreous humor (12 Hours): 261 ng Equivalents [^14C]DAP/g
Concentration of Radioactivity in Adrenal gland (24 Hours): 564 ng Equivalents [^14C]DAP/g
Concentration of Radioactivity in Blood (24 Hours): 209 ng Equivalents [^14C]DAP/g
Concentration of Radioactivity in Bone (24 Hours): 506 ng Equivalents [^14C]DAP/g
Concentration of Radioactivity in Bulbourethral gland (24 Hours): 535 ng Equivalents [^14C]DAP/g
Concentration of Radioactivity in Cecum (24 Hours): 1256 ng Equivalents [^14C]DAP/g
Concentration of Radioactivity in Cecum contents (24 Hours): 814 ng Equivalents [^14C]DAP/g
Concentration of Radioactivity in Cerebellum (24 Hours): 298 ng Equivalents [^14C]DAP/g
Concentration of Radioactivity in Cerebrum (24 Hours): 397 ng Equivalents [^14C]DAP/g
Concentration of Radioactivity in Diaphragm (24 Hours): 448 ng Equivalents [^14C]DAP/g
Concentration of Radioactivity in Epididymis (24 Hours): 722 ng Equivalents [^14C]DAP/g
Concentration of Radioactivity in Esophageal contents (24 Hours): 196 ng Equivalents [^14C]DAP/g
Concentration of Radioactivity in Esophagus (24 Hours): 822 ng Equivalents [^14C]DAP/g
Concentration of Radioactivity in Exorbital gland (24 Hours): 931 ng Equivalents [^14C]DAP/g
Concentration of Radioactivity in Fat (brown) (24 Hours): 1441 ng Equivalents [^14C]DAP/g
Concentration of Radioactivity in Fat (white) (24 Hours): 527 ng Equivalents [^14C]DAP/g
Concentration of Radioactivity in Harderian gland (24 Hours): 897 ng Equivalents [^14C]DAP/g
Concentration of Radioactivity in Intraorbital gland (24 Hours): 1059 ng Equivalents [^14C]DAP/g
Concentration of Radioactivity in Large intestine (24 Hours): 2068 ng Equivalents [^14C]DAP/g
Concentration of Radioactivity in Liver (24 Hours): 2049 ng Equivalents [^14C]DAP/g
Concentration of Radioactivity in Lung (24 Hours): 1087 ng Equivalents [^14C]DAP/g
Concentration of Radioactivity in Lymph nodes (24 Hours): 1348 ng Equivalents [^14C]DAP/g
Concentration of Radioactivity in Medulla (24 Hours): 200 ng Equivalents [^14C]DAP/g
Concentration of Radioactivity in Muscle (24 Hours): 279 ng Equivalents [^14C]DAP/g
Concentration of Radioactivity in Myocardium (24 Hours): 538 ng Equivalents [^14C]DAP/g
Concentration of Radioactivity in Nasal turbinates (24 Hours): 2635 ng Equivalents [^14C]DAP/g
Concentration of Radioactivity in Olfactory lobe (24 Hours): 614 ng Equivalents [^14C]DAP/g
Concentration of Radioactivity in Pancreas (24 Hours): 1702 ng Equivalents [^14C]DAP/g
Concentration of Radioactivity in Pituitary gland (24 Hours): 1463 ng Equivalents [^14C]DAP/g
Concentration of Radioactivity in Preputial gland (24 Hours): 927 ng Equivalents [^14C]DAP/g
Concentration of Radioactivity in Prostate gland (24 Hours): 5272 ng Equivalents [^14C]DAP/g
Concentration of Radioactivity in Salivary gland (24 Hours): 1447 ng Equivalents [^14C]DAP/g
Concentration of Radioactivity in Seminal vesicles (24 Hours): 183 ng Equivalents [^14C]DAP/g
Concentration of Radioactivity in Skin (24 Hours): 1073 ng Equivalents [^14C]DAP/g
Concentration of Radioactivity in Small intestinal contents (24 Hours): 462 ng Equivalents [^14C]DAP/g
Concentration of Radioactivity in Spleen (24 Hours): 1007 ng Equivalents [^14C]DAP/g
Concentration of Radioactivity in Stomach (24 Hours): 861 ng Equivalents [^14C]DAP/g
Concentration of Radioactivity in Testes (24 Hours): 330 ng Equivalents [^14C]DAP/g
Concentration of Radioactivity in Thyroid gland (24 Hours): 1641 ng Equivalents [^14C]DAP/g
Concentration of Radioactivity in Vitreous humor (24 Hours): 309 ng Equivalents [^14C]DAP/g
Concentration of Radioactivity in Adrenal gland (72 Hours): 341 ng Equivalents [^14C]DAP/g
Concentration of Radioactivity in Cecum contents (72 Hours): 421 ng Equivalents [^14C]DAP/g
Concentration of Radioactivity in Cerebrum (72 Hours): 182 ng Equivalents [^14C]DAP/g
Concentration of Radioactivity in Diaphragm (72 Hours): 206 ng Equivalents [^14C]DAP/g
Concentration of Radioactivity in Exorbital gland (72 Hours): 304 ng Equivalents [^14C]DAP/g
Concentration of Radioactivity in Fat (brown) (72 Hours): 593 ng Equivalents [^14C]DAP/g
Concentration of Radioactivity in Fat (white) (72 Hours): 236 ng Equivalents [^14C]DAP/g
Concentration of Radioactivity in Harderian gland (72 Hours): 458 ng Equivalents [^14C]DAP/g
Concentration of Radioactivity in Intraorbital gland (72 Hours): 298 ng Equivalents [^14C]DAP/g
Concentration of Radioactivity in Large intestine (72 Hours): 646 ng Equivalents [^14C]DAP/g
Concentration of Radioactivity in Liver (72 Hours): 774 ng Equivalents [^14C]DAP/g
Concentration of Radioactivity in Lung (72 Hours): 545 ng Equivalents [^14C]DAP/g
Concentration of Radioactivity in Lymph nodes (72 Hours): 550 ng Equivalents [^14C]DAP/g
Concentration of Radioactivity in Myocardium (72 Hours): 264 ng Equivalents [^14C]DAP/g
Concentration of Radioactivity in Nasal turbinates (72 Hours): 1204 ng Equivalents [^14C]DAP/g
Concentration of Radioactivity in Olfactory lobe (72 Hours): 213 ng Equivalents [^14C]DAP/g
Concentration of Radioactivity in Pancreas (72 Hours): 360 ng Equivalents [^14C]DAP/g
Concentration of Radioactivity in Pituitary gland (72 Hours): 638 ng Equivalents [^14C]DAP/g
Concentration of Radioactivity in Preputial gland (72 Hours): 639 ng Equivalents [^14C]DAP/g
Concentration of Radioactivity in Prostate gland (72 Hours): 4484 ng Equivalents [^14C]DAP/g
Concentration of Radioactivity in Salivary gland (72 Hours): 487 ng Equivalents [^14C]DAP/g
Concentration of Radioactivity in Skin (72 Hours): 375 ng Equivalents [^14C]DAP/g
Concentration of Radioactivity in Small intestinal contents (72 Hours): 320 ng Equivalents [^14C]DAP/g
Concentration of Radioactivity in Spleen (72 Hours): 408 ng Equivalents [^14C]DAP/g
Concentration of Radioactivity in Stomach (72 Hours): 473 ng Equivalents [^14C]DAP/g
Concentration of Radioactivity in Thyroid gland (72 Hours): 510 ng Equivalents [^14C]DAP/g
